Measured data: PubChem BioAssay AID504793 (Drosophila RNAi Screening Center, 2011)

- Aim: 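Genes required for cells to halt at G2/M after double-strand DNA breaks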 (primary screen)
- Cell system: Drosophila S2R+ cells
- Knock-down reagent: long dsRNA against Drosophila genes, about 0.25 µg dsRNA per well
- Timing: 4 days of dsRNA, then 4 hours of drug before read-out
- Challenge: doxorubicin 0.5 µM for 4 hours to cause double-strand breaks, in cells also given a low, harmless dose of dsRNA against nbs to sensitise the assay
- Detection: 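Mitotic index as the number of phospho-histone H3-positive cells in each well following doxorubicin, given as raw counts without normalisation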
- Direction: mitotic cells: higher = more cells in mitosis, weaker G2 arrest
- Rule for the call: 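a call needs confirmation in secondary tests, with other dsRNAs and a check of mitotic timing without damage, not just a high primary count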
- Meaning of the calls: active = confirmed in follow-up tests; inactive = not confirmed
In all, the deposit lists about 23,000 reagents; this is an unselected part of those that have a named target and a result. Of all reagents, 62 (0.27%) got an active call. 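Calls come from follow-up tests whose scores are not deposited, so confirmed genes may have low counts here; counts are not normalised per plate.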 The raw values are shown without normalisation. Entries without a mark were called inactive. The numbers tell different reagents against one gene apart. A plus sign joins genes that one reagent is predicted to hit.

no.	target gene	reagent no.	mitotic cells, replicate 1
1	CG42789 (GeneID 10178793)	1	7
2	CG12539 (GeneID 32412)	1	9
3	CG12539 (GeneID 32412)	2	9
4	Noc2 (GeneID 35386)	1	9
5	oxt (GeneID 38288)	1	7
6	CG17807 (GeneID 37585)	1	4
7	CG17807 (GeneID 37585)	2	6
8	Gycbeta100B (GeneID 43682)	1	24
9	Gycbeta100B (GeneID 43682)	2	22
10	Gycbeta100B (GeneID 43682)	3	3
11	Gycbeta100B (GeneID 43682)	4	11
12	rod (GeneID 43719)	1	11
13	raw (GeneID 44851)	1	1
14	raw (GeneID 44851)	2	1
15	dsd (GeneID 43315)	1	10
16	dsd (GeneID 43315)	2	6
17	CG13056 (GeneID 50267)	1	5
18	CG13056 (GeneID 50267)	2	2
19	aly (GeneID 45960)	1	1
20	aly (GeneID 45960)	2	8
21	aly (GeneID 45960)	3	6
22	Ets96B (GeneID 42952)	1	16
23	Ets96B (GeneID 42952)	2	5
24	E2f1 (GeneID 42550)	1	5
25	E2f1 (GeneID 42550)	2	6
26	CR14033 (GeneID 10178827)	1	3
27	CR14033 (GeneID 10178827)	2	5
28	CG11583 (GeneID 326206)	1	12
29	CG11583 (GeneID 326206)	2	14
30	SiaT (GeneID 37950)	1	3
31	CG12069 (GeneID 43643)	1	9
32	CG12069 (GeneID 43643)	2	4
33	LManVI (GeneID 34206)	1	4
34	LManVI (GeneID 34206)	2	6
35	CG15537 (GeneID 43614)	1	6
36	CG15537 (GeneID 43614)	2	7
37	Atg1 (GeneID 39454)	1	9
38	Atg1 (GeneID 39454)	2	4
39	CG40551 (retired record) (GeneID 5740872)	1	6
40	Ugt49B1 (GeneID 37420)	1	6
41	Ugt49B1 (GeneID 37420)	2	10
42	CG13096 (GeneID 34183)	1	4
43	Ote (GeneID 37090)	1	2
44	CG3515 (GeneID 33437)	1	3
45	Mcm10 (GeneID 35390)	1	10
46	Mcm10 (GeneID 35390)	2	7
47	pav (GeneID 38515)	1	63
48	pav (GeneID 38515)	2	3
49	CG18011 (GeneID 36068)	1	6
50	CG18011 (GeneID 36068)	2	6
51	CG15706 (GeneID 36799)	1	8
52	Cpr30F (GeneID 318997)	1	8
53	Cpr30F (GeneID 318997)	2	10
54	Dnah3 (GeneID 38586)	1	13
55	Dnah3 (GeneID 38586)	2	11
56	Dnah3 (GeneID 38586)	3	8

Copied from above for reference:
no.	target gene	reagent no.	mitotic cells, replicate 1
22	Ets96B (GeneID 42952)	1	16
23	Ets96B (GeneID 42952)	2	5
24	E2f1 (GeneID 42550)	1	5
25	E2f1 (GeneID 42550)	2	6
26	CR14033 (GeneID 10178827)	1	3
27	CR14033 (GeneID 10178827)	2	5
28	CG11583 (GeneID 326206)	1	12

Next reagents follow:
no.	target gene	reagent no.	mitotic cells, replicate 1
57	alphaCOP (GeneID 38199)	1	9
58	GILT3 (GeneID 42787)	1	8
59	CG6013 (GeneID 42286)	1	11
60	CG6013 (GeneID 42286)	2	2
61	CG9147 (GeneID 33855)	1	5
62	CG9147 (GeneID 33855)	2	21
63	TMEM216 (GeneID 41035)	1	2
64	TMEM216 (GeneID 41035)	2	5
65	CG8664 (GeneID 32719)	1	8
66	Obp50b + Obp50c	1	10
67	CG43689 (GeneID 31353)	1	12
68	CG43689 (GeneID 31353)	2	7
69	CG43689 (GeneID 31353)	3	1
70	SH3PX1 (GeneID 39136)	1	3
71	Pvr (GeneID 34127)	1	6
72	Pvr (GeneID 34127)	2	20
73	CG32638 (GeneID 318133)	1	5
74	CG17821 (GeneID 37159)	1	9
75	CG9973 (retired record) (GeneID 38349)	1	4
76	CG9973 (retired record) (GeneID 38349)	2	5
77	CG6426 (GeneID 36891)	1	5
78	Sgt1 (GeneID 40982)	1	7
79	Sgt1 (GeneID 40982)	2	11
80	CG14471 (retired record) (GeneID 35525)	1	6
81	CG14471 (retired record) (GeneID 35525)	2	6
82	disco-r (GeneID 64875)	1	12
83	disco-r (GeneID 64875)	2	10
84	CG30373 (GeneID 246573)	1	1
85	CG30373 (GeneID 246573)	2	8
86	CG33958 (GeneID 37088)	1	4
87	CG33958 (GeneID 37088)	2	6
88	CG33958 (GeneID 37088)	3	5
89	CG32536 (GeneID 32922)	1	7
90	Or49b (GeneID 36413)	1	7
91	Paip1 (GeneID 36913)	1	7
92	Paip1 (GeneID 36913)	2	4
93	CG13931 (GeneID 38212)	1	7
94	CG13931 (GeneID 38212)	2	5
95	Taf6 (GeneID 40134)	1	5
96	Rbpn-5 (GeneID 37395)	1	3
97	Rbpn-5 (GeneID 37395)	2	6
98	Rtf1 (GeneID 37554)	1	8
99	Rtf1 (GeneID 37554)	2	3
100	CG13558 (GeneID 37719)	1	3
101	CG13558 (GeneID 37719)	2	3
102	udd (GeneID 35781)	1	6
103	RpL36A (GeneID 34098)	1	8
104	RpL36A (GeneID 34098)	2	6
105	CG14020 (GeneID 33771)	1	1
106	14-3-3zeta (GeneID 36059)	1	8
107	14-3-3zeta (GeneID 36059)	2	21
108	mod(mdg4) + pre-mod(mdg4)-U	1	11
109	pad (GeneID 41981)	1	7
110	pad (GeneID 41981)	2	6
